Assay results from US10538535B2, “Antitumoral compounds” (priority 2017, dated 2020).
The name of at least one read-out is uncertain.

Tested on: HT1080 tumors
Experiment: In vivo xenograft, human fibrosarcoma HT1080

SMILES: COc1c(C)cc2c(c1O)[C@@H]1[C@@H]3[C@@H]4SC[C@]5(N[C@@H](C)Cc6c5[nH]c5ccccc65)C(=O)OC[C@@H](c5c6c(c(C)c(OC(C)=O)c54)OCO6)N3[C@@H](O)[C@H](C2)N1C [D]
- Total diameter (tumor + leg) (Table 20, Day 19, iv Days 0, 7, 14): 11.2 mm
- Total diameter (tumor + leg) (Table 29, Day 23.0, iv Days 0, 7, 14, 12-R 0.05 mg/kg, Compound D 0.5 mg/kg): 12.2 mm
- Total diameter (tumor + leg) (Table 53, Day 27, iv weekly, 47-R 0.1 mg/Kg, Compound D 0.5 mg/Kg): 13.2 mm
- Total diameter (tumor + leg) (Table 53, Day 30, iv weekly, 47-R 0.1 mg/Kg, Compound D 0.5 mg/Kg): 14.6 mm
- Total diameter (tumor + leg) (Table 53, Day 33, iv weekly, 47-R 0.1 mg/Kg, Compound D 0.5 mg/Kg): 16.3 mm
